Values of other authors as cited in patent US4952607A, “Copper complex for treating cancer” (priority 1986, dated 1990).
At least one compound was matched to its structure with a doubt left.

Conditions: cited from earlier work

## CC(C)c1cc(C(=O)[O-])c(O)c(C(C)C)c1.CC(C)c1cc(C(=O)[O-])c(O)c(C(C)C)c1.[Cu+2] [CuDIPS, Cu(II) (3,5-diisopropylsalicylate)2]
  anti-inflammatory activity: a potent anti-inflammatory agent
